# The list shows a part of the results.
# How the values were obtained:
# Assay in all cases: glycan array binding signal (z-score within array); higher = stronger binding
# Settings in all cases: glycan notation: IUPAC condensed, linker removed
# [1] = molecular target: Fuc(a1-2)[GalNAc(a1-3)]Gal(b1-3)GlcNAc(b1-3)GalNAc
# Procedure, shortened: (§1)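 Glycan array data came from 3228 arrays in the Consortium for Functional Glycomics database, and only arrays with an available protein sequence were kept. Glycan names were put into IUPAC-condensed notation, and columns mapping to the same glycan were averaged. The binding signal is a within-array Z-score, averaged across arrays of one protein sequence run at different concentrations or buffers and across linkers. A negative Z-score can be read as non-binding.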
# [2] = molecular target: Fuc(a1-2)[GalNAc(a1-3)]Gal(b1-3)GlcNAc(b1-6)GalNAc
# Procedure, shortened: as §1
# [3] = molecular target: Fuc(a1-2)[GalNAc(a1-3)]Gal(b1-4)Glc
# Procedure, shortened: as §1
# [4] = molecular target: Fuc(a1-2)[GalNAc(a1-3)]Gal(b1-4)GlcNAc
# Procedure, shortened: as §1
# [5] = molecular target: Fuc(a1-2)[GalNAc(a1-3)]Gal(b1-4)GlcNAc(b1-2)Man
# Procedure, shortened: as §1
# [6] = molecular target: Fuc(a1-2)[GalNAc(a1-3)]Gal(b1-4)GlcNAc(b1-2)Man(a1-3)[Fuc(a1-2)[GalNAc(a1-3)]Gal(b1-4)GlcNAc(b1-2)Man(a1-6)]Man(b1-4)GlcNAc(b1-4)GlcNAc
# Procedure, shortened: as §1
# [7] = molecular target: Fuc(a1-2)[GalNAc(a1-3)]Gal(b1-4)GlcNAc(b1-2)Man(a1-3)[Fuc(a1-2)[GalNAc(a1-3)]Gal(b1-4)GlcNAc(b1-2)Man(a1-6)]Man(b1-4)GlcNAc(b1-4)[Fuc(a1-6)]GlcNAc
# Procedure, shortened: as §1
# [8] = molecular target: Fuc(a1-2)[GalNAc(a1-3)]Gal(b1-4)GlcNAc(b1-3)Gal(b1-4)GlcNAc
# Procedure, shortened: as §1
# [9] = molecular target: Fuc(a1-2)[GalNAc(a1-3)]Gal(b1-4)GlcNAc(b1-3)Gal(b1-4)GlcNAc(b1-3)Gal(b1-4)GlcNAc
# Procedure, shortened: as §1
# [10] = molecular target: Fuc(a1-2)[GalNAc(a1-3)]Gal(b1-4)GlcNAc(b1-3)GalNAc
# Procedure, shortened: as §1
# [11] = molecular target: Fuc(a1-2)[GalNAc(a1-3)]Gal(b1-4)GlcNAc(b1-3)[Fuc(a1-2)[GalNAc(a1-3)]Gal(b1-4)GlcNAc(b1-6)]GalNAc
# Procedure, shortened: as §1
# [12] = molecular target: Fuc(a1-2)[GalNAc(a1-3)]Gal(b1-4)GlcNAc(b1-6)GalNAc
# Procedure, shortened: as §1
# [13] = molecular target: Fuc(a1-2)[GalNAc(a1-3)]Gal(b1-4)[Fuc(a1-3)]GlcNAc
# Procedure, shortened: as §1
# [14] = molecular target: Fuc(a1-2)[GalNAc(a1-3)]Gal(b1-4)[Fuc(a1-3)]GlcNAc(b1-3)GalNAc
# Procedure, shortened: as §1
# [15] = molecular target: Fuc(a1-2)[GalNAc(a1-4)]Gal(b1-4)GlcNAc
# Procedure, shortened: as §1
# [16] = molecular target: Fuc(a1-2)[GalNAc(b1-3)]Gal
# Procedure, shortened: as §1
# Fuc(a1-3)GlcNAc = molecular target: Fuc(a1-3)GlcNAc
# Procedure, shortened: as §1
# [17] = molecular target: Fuc(a1-3)[Gal(b1-4)]Glc6S
# Procedure, shortened: as §1
# [18] = molecular target: Fuc(a1-3)[Gal(b1-4)]GlcNAc
# Procedure, shortened: as §1
# [19] = molecular target: Fuc(a1-3)[Gal(b1-4)]GlcNAc(b1-2)Man
# Procedure, shortened: as §1
# [20] = molecular target: Fuc(a1-3)[Gal(b1-4)]GlcNAc(b1-2)Man(a1-3)[Fuc(a1-3)[Gal(b1-4)]GlcNAc(b1-2)Man(a1-6)]Man(b1-4)GlcNAc(b1-4)GlcNAc
# Procedure, shortened: as §1
# [21] = molecular target: Fuc(a1-3)[Gal(b1-4)]GlcNAc(b1-2)Man(a1-3)[Fuc(a1-3)[Gal(b1-4)]GlcNAc(b1-2)Man(a1-6)]Man(b1-4)GlcNAc(b1-4)[Fuc(a1-6)]GlcNAc
# Procedure, shortened: as §1
# [22] = molecular target: Fuc(a1-3)[Gal(b1-4)]GlcNAc(b1-3)Gal(b1-3)[Fuc(a1-4)]GlcNAc
# Procedure, shortened: as §1
# [23] = molecular target: Fuc(a1-3)[Gal(b1-4)]GlcNAc(b1-3)Gal(b1-4)[Fuc(a1-3)]GlcNAc
# Procedure, shortened: as §1
# [24] = molecular target: Fuc(a1-3)[Gal(b1-4)]GlcNAc(b1-3)Gal(b1-4)[Fuc(a1-3)]GlcNAc(b1-3)Gal(b1-4)[Fuc(a1-3)]GlcNAc
# Procedure, shortened: as §1
# [25] = molecular target: Fuc(a1-3)[Gal(b1-4)]GlcNAc(b1-3)GalNAc
# Procedure, shortened: as §1
# [26] = molecular target: Fuc(a1-3)[Gal(b1-4)]GlcNAc(b1-6)GalNAc
# Procedure, shortened: as §1
# [27] = molecular target: Fuc(a1-3)[Gal(b1-4)]GlcNAc(b1-6)[Gal(b1-3)GlcNAc(b1-3)]Gal(b1-4)Glc
# Procedure, shortened: as §1
# [28] = molecular target: Fuc(a1-3)[Gal(b1-4)]GlcNAc6S
# Procedure, shortened: as §1
# [29] = molecular target: Fuc(a1-3)[Gal3S(b1-4)]Glc
# Procedure, shortened: as §1
# [30] = molecular target: Fuc(a1-3)[Gal3S(b1-4)]GlcNAc
# Procedure, shortened: as §1
# [31] = molecular target: Fuc(a1-3)[Gal3S(b1-4)]GlcNAc6S
# Procedure, shortened: as §1
# [32] = molecular target: Fuc(a1-3)[GalNAc(b1-4)]GlcNAc
# Procedure, shortened: as §1
# [33] = molecular target: Fuc(a1-3)[GalNAc(b1-4)]GlcNAc6S
# Procedure, shortened: as §1
# Fuc(a1-4)GlcNAc = molecular target: Fuc(a1-4)GlcNAc
# Procedure, shortened: as §1
# Fuc(b1-3)GlcNAc = molecular target: Fuc(b1-3)GlcNAc
# Procedure, shortened: as §1
# Gal(a1-2)Gal = molecular target: Gal(a1-2)Gal
# Procedure, shortened: as §1
binder,measurement,setting,value
Drgal1 (Danio rerio) (protein) MAGVLIQNMSFKVGQTLTITGVPKPDSTNFAINIGHSPEDIALHMNPRFDAHGDQCTIVCNSFQSGSWCEEHRDDNFPFIQDKEFQIKITFTNEEFLVTLPDGSEIHFPNRQGSEKYKYMYFEGEVRIQGVEIK,glycan array binding signal (z-score),[1],-0.069
same,glycan array binding signal (z-score),[2],-0.533
same,glycan array binding signal (z-score),[3],-0.454
same,glycan array binding signal (z-score),[4],-0.6
same,glycan array binding signal (z-score),[5],-1.11
same,glycan array binding signal (z-score),[6],0.154
same,glycan array binding signal (z-score),[7],0.279
same,glycan array binding signal (z-score),[8],-0.493
same,glycan array binding signal (z-score),[9],0.101
same,glycan array binding signal (z-score),[10],-0.871
same,glycan array binding signal (z-score),[11],-0.241
same,glycan array binding signal (z-score),[12],-0.577
same,glycan array binding signal (z-score),[13],0.041
same,glycan array binding signal (z-score),[14],2.22
same,glycan array binding signal (z-score),[15],0.017
same,glycan array binding signal (z-score),[16],-0.233
same,glycan array binding signal (z-score),Fuc(a1-3)GlcNAc,-0.318
same,glycan array binding signal (z-score),[17],-0.694
same,glycan array binding signal (z-score),[18],-0.316
same,glycan array binding signal (z-score),[19],0.041
same,glycan array binding signal (z-score),[20],0.171
same,glycan array binding signal (z-score),[21],0.227
same,glycan array binding signal (z-score),[22],-0.505
same,glycan array binding signal (z-score),[23],-0.28
same,glycan array binding signal (z-score),[24],-0.386
same,glycan array binding signal (z-score),[25],-0.392
same,glycan array binding signal (z-score),[26],0.267
same,glycan array binding signal (z-score),[27],0.046
same,glycan array binding signal (z-score),[28],2.04
same,glycan array binding signal (z-score),[29],-0.077
same,glycan array binding signal (z-score),[30],-0.047
same,glycan array binding signal (z-score),[31],-0.451
same,glycan array binding signal (z-score),[32],1.26
same,glycan array binding signal (z-score),[33],-0.484
same,glycan array binding signal (z-score),Fuc(a1-4)GlcNAc,0.41
same,glycan array binding signal (z-score),Fuc(b1-3)GlcNAc,-0.45
same,glycan array binding signal (z-score),Gal(a1-2)Gal,-0.396

# From the supplement of paper PMC8728848
